This is one part of the list. Residues, ends and D or L forms follow the SMILES beside them. *: point of attachment. Cbz = O=C(OCc1ccccc1)*
Columns and labels:
Assay in all cases: log2 fold change, soluble protein after heating vs DMSO (PISA); higher = thermal stabilisation; K562 cells, 10 uM, 30 min; active = over 0.2 and 3.5 SD of the protein, either way, in both replicates (recomputed)
[1] = compound: C#Cc1cccc(Nc2ncnc3cc(OCCOC)c(OCCOC)cc23)c1 [erlotinib]
Procedure, shortened: (§1)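 Soluble protein was defined as the supernatant after 21,000xg for 90 min. It came from K562 cells at 2×10^6 cells/mL given 10 μM compound for 30 min, heated in aliquots for 3 min across 48°C-58°C, pooled, and extracted in PBS with 0.5% NP-40 at 4°C, and was quantified by TMTpro 16plex LC-MS/MS with equalised channel sums. Thermal stability against control samples, from duplicates, is reported as log2 fold change.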

Sequences of proteins named here, by UniProt entry; tags and fusion partners are left off. A change or cut given only in a name is not applied to a line headed by its entry.
UniProt P42773: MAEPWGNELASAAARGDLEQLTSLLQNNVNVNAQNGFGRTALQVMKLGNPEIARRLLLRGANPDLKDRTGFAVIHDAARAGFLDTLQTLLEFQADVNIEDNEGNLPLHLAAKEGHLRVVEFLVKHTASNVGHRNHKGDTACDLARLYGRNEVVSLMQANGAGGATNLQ
UniProt Q9NRR3: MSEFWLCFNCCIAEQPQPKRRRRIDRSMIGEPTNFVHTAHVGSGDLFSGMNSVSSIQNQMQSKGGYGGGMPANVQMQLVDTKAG
UniProt Q9BWU1: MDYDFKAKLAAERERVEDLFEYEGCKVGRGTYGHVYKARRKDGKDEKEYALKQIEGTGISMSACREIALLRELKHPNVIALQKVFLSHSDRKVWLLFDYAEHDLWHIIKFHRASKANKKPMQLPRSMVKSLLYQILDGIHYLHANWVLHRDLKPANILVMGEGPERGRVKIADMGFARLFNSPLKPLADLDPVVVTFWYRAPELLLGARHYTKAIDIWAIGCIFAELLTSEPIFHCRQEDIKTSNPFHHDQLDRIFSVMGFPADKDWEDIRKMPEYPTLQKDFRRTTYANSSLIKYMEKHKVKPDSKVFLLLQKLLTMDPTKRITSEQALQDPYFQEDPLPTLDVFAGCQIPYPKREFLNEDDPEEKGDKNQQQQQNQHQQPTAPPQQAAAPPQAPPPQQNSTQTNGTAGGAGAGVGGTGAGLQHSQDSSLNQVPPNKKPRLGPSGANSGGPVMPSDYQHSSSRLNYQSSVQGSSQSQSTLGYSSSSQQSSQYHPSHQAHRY
UniProt Q86X02: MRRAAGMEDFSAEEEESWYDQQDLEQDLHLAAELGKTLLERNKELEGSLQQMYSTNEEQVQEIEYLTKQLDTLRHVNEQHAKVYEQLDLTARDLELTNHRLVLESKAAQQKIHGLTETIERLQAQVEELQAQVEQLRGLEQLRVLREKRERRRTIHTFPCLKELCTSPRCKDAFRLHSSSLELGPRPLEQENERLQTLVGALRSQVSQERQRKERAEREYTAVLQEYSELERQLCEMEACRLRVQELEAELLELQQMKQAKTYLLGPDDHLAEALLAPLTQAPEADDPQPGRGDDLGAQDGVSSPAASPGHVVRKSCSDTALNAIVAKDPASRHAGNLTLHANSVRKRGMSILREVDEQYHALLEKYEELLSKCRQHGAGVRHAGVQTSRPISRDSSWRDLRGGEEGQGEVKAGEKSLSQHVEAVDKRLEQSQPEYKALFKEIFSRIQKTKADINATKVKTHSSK
UniProt Q92903: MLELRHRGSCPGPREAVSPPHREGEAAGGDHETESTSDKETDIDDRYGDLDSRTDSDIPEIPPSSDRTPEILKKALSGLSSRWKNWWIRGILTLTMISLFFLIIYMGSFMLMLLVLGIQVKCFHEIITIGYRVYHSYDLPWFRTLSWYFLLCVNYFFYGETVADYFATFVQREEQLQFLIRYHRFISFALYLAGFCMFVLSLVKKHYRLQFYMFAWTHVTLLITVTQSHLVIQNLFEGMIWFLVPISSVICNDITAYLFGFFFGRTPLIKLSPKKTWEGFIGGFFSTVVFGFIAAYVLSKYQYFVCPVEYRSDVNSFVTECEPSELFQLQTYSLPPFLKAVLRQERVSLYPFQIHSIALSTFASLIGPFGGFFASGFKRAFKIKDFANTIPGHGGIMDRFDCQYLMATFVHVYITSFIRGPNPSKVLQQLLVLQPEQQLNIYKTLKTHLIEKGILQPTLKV
UniProt O94986: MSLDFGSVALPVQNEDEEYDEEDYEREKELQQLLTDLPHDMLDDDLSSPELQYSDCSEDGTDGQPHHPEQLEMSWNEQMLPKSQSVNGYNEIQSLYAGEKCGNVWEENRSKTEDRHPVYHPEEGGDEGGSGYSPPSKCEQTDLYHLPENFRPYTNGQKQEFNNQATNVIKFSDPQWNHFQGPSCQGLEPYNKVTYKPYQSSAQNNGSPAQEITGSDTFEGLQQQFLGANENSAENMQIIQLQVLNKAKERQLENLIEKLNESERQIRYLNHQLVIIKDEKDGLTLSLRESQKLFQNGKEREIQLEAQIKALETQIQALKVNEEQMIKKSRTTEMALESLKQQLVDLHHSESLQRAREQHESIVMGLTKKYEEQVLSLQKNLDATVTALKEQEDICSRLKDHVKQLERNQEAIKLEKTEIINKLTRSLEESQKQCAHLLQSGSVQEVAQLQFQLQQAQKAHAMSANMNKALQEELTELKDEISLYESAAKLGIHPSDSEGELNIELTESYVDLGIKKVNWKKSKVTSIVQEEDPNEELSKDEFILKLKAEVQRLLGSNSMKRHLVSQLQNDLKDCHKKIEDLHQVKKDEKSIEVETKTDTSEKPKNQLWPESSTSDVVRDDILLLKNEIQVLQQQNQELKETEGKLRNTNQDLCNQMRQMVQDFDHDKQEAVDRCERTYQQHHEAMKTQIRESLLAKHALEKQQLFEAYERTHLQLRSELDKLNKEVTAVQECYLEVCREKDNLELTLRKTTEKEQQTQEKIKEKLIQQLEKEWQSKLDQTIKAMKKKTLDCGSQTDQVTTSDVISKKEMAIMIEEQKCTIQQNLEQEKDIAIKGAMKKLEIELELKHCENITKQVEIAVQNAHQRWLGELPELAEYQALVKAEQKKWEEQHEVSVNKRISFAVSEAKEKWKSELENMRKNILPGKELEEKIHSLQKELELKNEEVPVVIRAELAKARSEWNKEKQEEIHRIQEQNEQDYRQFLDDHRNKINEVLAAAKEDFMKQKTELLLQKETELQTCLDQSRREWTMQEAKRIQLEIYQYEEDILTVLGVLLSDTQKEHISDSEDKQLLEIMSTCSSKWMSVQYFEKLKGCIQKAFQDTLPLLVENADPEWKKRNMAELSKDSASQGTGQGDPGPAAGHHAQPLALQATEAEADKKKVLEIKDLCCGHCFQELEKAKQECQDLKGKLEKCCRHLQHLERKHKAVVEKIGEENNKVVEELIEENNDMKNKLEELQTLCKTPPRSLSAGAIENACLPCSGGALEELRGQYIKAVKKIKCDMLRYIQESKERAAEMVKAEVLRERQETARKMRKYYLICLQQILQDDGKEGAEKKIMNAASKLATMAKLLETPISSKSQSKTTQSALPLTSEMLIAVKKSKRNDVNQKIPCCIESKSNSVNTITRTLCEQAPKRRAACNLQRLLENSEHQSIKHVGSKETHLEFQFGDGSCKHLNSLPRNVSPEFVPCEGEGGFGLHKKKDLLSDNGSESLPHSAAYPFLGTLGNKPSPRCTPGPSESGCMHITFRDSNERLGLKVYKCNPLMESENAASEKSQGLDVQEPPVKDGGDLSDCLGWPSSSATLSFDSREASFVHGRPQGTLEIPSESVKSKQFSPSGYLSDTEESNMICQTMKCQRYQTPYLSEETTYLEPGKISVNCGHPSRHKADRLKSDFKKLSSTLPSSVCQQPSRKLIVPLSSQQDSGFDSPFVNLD
UniProt Q5VT06: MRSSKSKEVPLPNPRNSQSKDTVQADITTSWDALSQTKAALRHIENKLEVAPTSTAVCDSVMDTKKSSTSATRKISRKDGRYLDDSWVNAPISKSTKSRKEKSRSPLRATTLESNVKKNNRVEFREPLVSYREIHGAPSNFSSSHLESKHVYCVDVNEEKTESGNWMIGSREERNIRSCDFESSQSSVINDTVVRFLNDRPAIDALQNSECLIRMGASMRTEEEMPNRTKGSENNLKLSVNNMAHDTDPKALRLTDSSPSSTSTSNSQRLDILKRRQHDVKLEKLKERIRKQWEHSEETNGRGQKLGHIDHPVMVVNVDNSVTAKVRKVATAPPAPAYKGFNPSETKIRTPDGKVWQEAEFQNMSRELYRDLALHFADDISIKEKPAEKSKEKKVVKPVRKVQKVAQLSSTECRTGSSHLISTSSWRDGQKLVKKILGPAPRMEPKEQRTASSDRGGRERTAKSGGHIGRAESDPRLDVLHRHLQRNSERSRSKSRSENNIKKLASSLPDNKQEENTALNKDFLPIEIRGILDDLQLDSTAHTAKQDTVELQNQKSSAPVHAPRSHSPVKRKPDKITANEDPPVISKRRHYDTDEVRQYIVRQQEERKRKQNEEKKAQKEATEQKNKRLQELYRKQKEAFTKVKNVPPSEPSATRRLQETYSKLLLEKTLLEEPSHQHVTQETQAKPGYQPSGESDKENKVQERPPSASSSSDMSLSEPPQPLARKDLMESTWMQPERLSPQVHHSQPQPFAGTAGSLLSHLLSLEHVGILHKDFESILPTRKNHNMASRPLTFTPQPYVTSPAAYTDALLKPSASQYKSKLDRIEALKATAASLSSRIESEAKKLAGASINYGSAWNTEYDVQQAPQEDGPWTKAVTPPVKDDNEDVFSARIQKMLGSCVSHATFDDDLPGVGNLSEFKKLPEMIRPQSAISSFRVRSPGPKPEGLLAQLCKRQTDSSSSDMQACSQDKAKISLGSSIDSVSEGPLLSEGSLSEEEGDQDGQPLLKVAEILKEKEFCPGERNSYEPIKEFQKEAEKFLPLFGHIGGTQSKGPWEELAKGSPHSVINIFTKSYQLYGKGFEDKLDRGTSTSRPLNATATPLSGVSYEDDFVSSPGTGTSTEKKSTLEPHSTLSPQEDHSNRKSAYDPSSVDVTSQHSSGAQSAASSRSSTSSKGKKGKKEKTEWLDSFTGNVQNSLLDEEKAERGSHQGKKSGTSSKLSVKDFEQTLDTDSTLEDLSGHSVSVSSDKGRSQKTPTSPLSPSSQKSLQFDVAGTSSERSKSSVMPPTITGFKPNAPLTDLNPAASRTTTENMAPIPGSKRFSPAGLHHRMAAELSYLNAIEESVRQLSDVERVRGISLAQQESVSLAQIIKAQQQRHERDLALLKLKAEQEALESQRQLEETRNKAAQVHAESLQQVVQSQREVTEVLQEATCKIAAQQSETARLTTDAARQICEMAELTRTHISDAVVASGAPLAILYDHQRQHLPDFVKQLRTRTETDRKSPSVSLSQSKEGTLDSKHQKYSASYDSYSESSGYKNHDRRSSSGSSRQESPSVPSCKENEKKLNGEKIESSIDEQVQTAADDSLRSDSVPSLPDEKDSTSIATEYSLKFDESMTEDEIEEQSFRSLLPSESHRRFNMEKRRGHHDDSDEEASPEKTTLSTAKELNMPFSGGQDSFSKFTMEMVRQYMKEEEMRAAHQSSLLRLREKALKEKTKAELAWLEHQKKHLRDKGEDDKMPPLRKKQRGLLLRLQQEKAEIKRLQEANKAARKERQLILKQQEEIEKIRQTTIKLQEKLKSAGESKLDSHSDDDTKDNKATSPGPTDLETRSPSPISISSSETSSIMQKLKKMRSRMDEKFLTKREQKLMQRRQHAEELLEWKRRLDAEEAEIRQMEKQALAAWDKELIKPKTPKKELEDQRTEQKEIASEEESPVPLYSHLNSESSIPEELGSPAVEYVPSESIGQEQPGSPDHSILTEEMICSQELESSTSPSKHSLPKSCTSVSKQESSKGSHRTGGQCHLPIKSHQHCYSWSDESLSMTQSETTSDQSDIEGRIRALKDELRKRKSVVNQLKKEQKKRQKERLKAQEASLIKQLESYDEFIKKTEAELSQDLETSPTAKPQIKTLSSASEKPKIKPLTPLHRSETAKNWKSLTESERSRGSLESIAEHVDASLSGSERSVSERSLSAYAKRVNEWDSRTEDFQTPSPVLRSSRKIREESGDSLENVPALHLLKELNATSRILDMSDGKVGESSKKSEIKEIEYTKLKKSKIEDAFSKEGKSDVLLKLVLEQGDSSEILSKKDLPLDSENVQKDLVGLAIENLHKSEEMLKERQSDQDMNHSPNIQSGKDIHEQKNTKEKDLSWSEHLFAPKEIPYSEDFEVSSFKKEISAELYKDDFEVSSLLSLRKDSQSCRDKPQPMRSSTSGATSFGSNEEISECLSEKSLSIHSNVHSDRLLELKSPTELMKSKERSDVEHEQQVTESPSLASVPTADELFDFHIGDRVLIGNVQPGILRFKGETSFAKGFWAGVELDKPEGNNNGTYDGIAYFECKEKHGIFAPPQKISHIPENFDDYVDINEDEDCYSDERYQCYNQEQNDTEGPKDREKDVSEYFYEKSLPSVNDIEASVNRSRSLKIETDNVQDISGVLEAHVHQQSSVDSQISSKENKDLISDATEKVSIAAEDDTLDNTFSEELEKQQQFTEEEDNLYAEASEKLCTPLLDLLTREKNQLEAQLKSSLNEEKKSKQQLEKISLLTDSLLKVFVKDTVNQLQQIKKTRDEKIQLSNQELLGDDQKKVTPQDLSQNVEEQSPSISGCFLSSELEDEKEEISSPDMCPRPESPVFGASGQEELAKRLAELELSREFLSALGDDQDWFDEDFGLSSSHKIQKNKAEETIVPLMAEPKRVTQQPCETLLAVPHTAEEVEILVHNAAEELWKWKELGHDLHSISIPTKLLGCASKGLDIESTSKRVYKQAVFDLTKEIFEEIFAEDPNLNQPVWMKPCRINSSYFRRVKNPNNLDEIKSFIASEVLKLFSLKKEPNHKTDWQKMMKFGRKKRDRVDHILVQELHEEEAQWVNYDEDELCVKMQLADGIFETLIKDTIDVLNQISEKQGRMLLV

[2] = compound: C/C(=N\NC(=O)C1=CC(=CC=C1)S(=O)(=O)N2CCOCC2)/C3=C(C=CC(=C3)Cl)O
Procedure, shortened: as §1

[3] = compound: C1=CC(=C(C=C1Cl)C2=NC3=NC=CN=C3C(=N2)NC4=CC=NC=C4)F
Procedure, shortened: as §1

[4] = compound: C1=CC(=CC=C1C2=NC3=C(N2)C=C(C=C3)C(=O)N)OC4=CC=C(C=C4)Cl
Procedure, shortened: as §1

[5] = compound: C1=CC2=C(C=CC(=C2)/C=C\3/C(=O)NC(=NCC4=CC=CS4)S3)N=C1
Procedure, shortened: as §1

[6] = compound: C1=CC2=NC=CN=C2C=C1/C=C/3\C(=O)NC(=O)S3
Procedure, shortened: as §1

[7] = compound: C1=CC=C(C=C1)C2=NC(=C(N2)C3=CC=NC=C3)C4=CC(=C(C=C4)Cl)O
Procedure, shortened: as §1

[8] = compound: C1=CC=C2C(=C1)C3=NNC4=CC=CC(=C43)C2=O
Procedure, shortened: as §1

[9] = compound: C1CCN(C1)C(=O)NC2=CC=CC(=C2)NC3=NC=C(C(=N3)NCCC4=CN=CN4)Br
Procedure, shortened: as §1

[10] = compound: C1CN(CCC1(CC2=CC=C(C=C2)Cl)N)C3=NC=NC4=C3C=CN4
Procedure, shortened: as §1

[11] = compound: C=CC(=O)N1CCC[C@@H](n2nc(-c3ccc(Oc4ccccc4)cc3)c3c(N)ncnc32)C1 [ibrutinib]
Procedure, shortened: as §1

[12] = compound: CC(=O)c1cnc2ccc(-c3cc(Cl)c(O)c(Cl)c3)nc2c1N[C@H]1CC[C@H](CN(C)C)CC1
Procedure, shortened: as §1

[13] = compound: CC(C)(C)Cn1c(N)nc2ccc(-c3[nH]c(C(C)(C)C)nc3-c3ccc(F)cc3)nc21 [ralimetinib]
Procedure, shortened: as §1

[14] = compound: CC(C)(O)CC(=O)NCCn1ccc2ncnc(Nc3ccc(Oc4cccc(C(F)(F)F)c4)c(Cl)c3)c21
Procedure, shortened: as §1

[15] = compound: CC(C)C1=C2N=C(C=C(N2N=C1)NCC3=CC=CC=C3)NCCCCCCN
Procedure, shortened: as §1

[16] = compound: CC(C)C[C@@H](C=O)NC(=O)[C@H](CC(C)C)NC(=O)[C@H](CC(C)C)NC(=O)OCc1ccccc1
Procedure, shortened: as §1

[17] = compound: CC1=C(C(CC(=O)N1)C2=CC=C(C=C2)C(F)(F)F)C(=O)NC3=C(C=C4C(=C3)C=NN4)F
Procedure, shortened: as §1

[18] = compound: CC1=C(C2=C(C=C1)C(=O)C3=CC=CC=C3N2CCCN)C
Procedure, shortened: as §1

[19] = compound: C1COCCN1CCN2C3=CC=CC=C3N=C2NC(=O)C4=CC(=CC=C4)[N+](=O)[O-] [IRAK-1-4 Inhibitor I]
Procedure, shortened: as §1

[20] = compound: CC(C)N(C[C@H]1O[C@@H](n2cnc3c(N)ncnc32)[C@H](O)[C@@H]1O)[C@H]1C[C@@H](CCc2nc3cc(C(C)(C)C)ccc3[nH]2)C1 [pinometostat]
Procedure, shortened: as §1

Target	log2 fold change [1]	log2 fold change [2]	log2 fold change [3]	log2 fold change [4]	log2 fold change [5]	log2 fold change [6]	log2 fold change [7]	log2 fold change [8]	log2 fold change [9]	log2 fold change [10]	log2 fold change [11]	log2 fold change [12]	log2 fold change [13]	log2 fold change [14]	log2 fold change [15]	log2 fold change [16]	log2 fold change [17]	log2 fold change [18]	log2 fold change [19]	log2 fold change [20]
CHD5 (UniProt Q8TDI0)	inactive: 0.124	inactive: 0.161	inactive: 0.123	inactive: -0.144	inactive: 0.062	inactive: -0.049	inactive: -0.024	inactive: -0.108	inactive: -0.112	inactive: -0.061	inactive: -0.058	inactive: -0.249	inactive: 0.11	inactive: 0.021	inactive: -0.367	inactive: 0.09	inactive: -0.016	inactive: -0.022	–	–
CDKN2C (UniProt P42773)	inactive: 0.1	inactive: 0.08	–	inactive: 0.029	inactive: 0.187	inactive: 0.135	inactive: 0.097	inactive: 0.035	inactive: -0.06	inactive: -0.021	inactive: -0.044	inactive: -0.141	inactive: -0.152	–	inactive: 0.102	inactive: -0.048	inactive: 0.043	inactive: 0.219	inactive: -0.063	inactive: -0.084
CEFIP (UniProt Q711Q0)	inactive: 0.019	inactive: 0.038	inactive: -0.195	inactive: 0.015	inactive: 0.083	inactive: 0.13	–	inactive: -0.054	–	–	inactive: -0.118	inactive: -0.294	–	inactive: -0.223	inactive: 0.038	–	–	–	–	–
CEP97 isoform 2 (UniProt Q8IW35)	inactive: 0.046	inactive: -0.043	inactive: -0.059	inactive: 0.008	inactive: 0.059	–	inactive: 0.028	inactive: -0.01	inactive: 0.072	inactive: 0.031	–	inactive: 0.075	inactive: 0.039	inactive: 0.082	inactive: 0.003	inactive: 0.033	inactive: -0.293	inactive: 0.037	inactive: 0.025	inactive: 0.164
CDC42SE2 (UniProt Q9NRR3)	inactive: -0.175	inactive: 0.319	inactive: 0.068	inactive: 0.007	inactive: -0.024	inactive: 0.021	–	inactive: -0.054	inactive: -0.093	inactive: 0.146	inactive: 0.062	inactive: -0.27	–	inactive: -0.106	inactive: 0.117	–	inactive: -0.01	inactive: 0.248	–	–
CDK19 (UniProt Q9BWU1)	inactive: -0.2	inactive: -0.116	inactive: 0.053	inactive: 0.268	inactive: 0.111	–	inactive: -0.167	inactive: 0.099	inactive: 0.003	inactive: 0.021	–	active: 0.541	inactive: -0.133	inactive: -0.02	inactive: 0.222	inactive: 0.074	–	inactive: 0.119	–	–
CDKN1B (UniProt P46527)	inactive: -0.076	inactive: 0.027	inactive: -0.133	inactive: 0.064	inactive: -0.217	inactive: -0.049	inactive: -0.1	inactive: -0.01	–	–	inactive: 0.015	inactive: 0.173	inactive: -0.024	inactive: 0.012	inactive: 0.215	active: 0.536	–	–	inactive: 0.023	inactive: -0.023
CDC42EP4 (UniProt Q9H3Q1)	inactive: 0.062	–	inactive: 0.02	inactive: 0.014	–	inactive: 0.043	inactive: -0.067	–	inactive: 0.027	inactive: 0.098	inactive: 0.016	–	inactive: 0.021	inactive: 0.006	inactive: 0	inactive: 0.049	inactive: 0.069	inactive: -0.113	–	–
CEP192 (UniProt Q8TEP8)	inactive: 0.047	inactive: -0.16	inactive: -0.11	inactive: -0.13	inactive: 0.298	inactive: -0.071	–	inactive: -0.096	inactive: 0.231	inactive: -0.22	inactive: -0.018	inactive: -0.094	–	inactive: 0.046	inactive: 0.084	–	inactive: 0.203	inactive: 0.039	inactive: -0.006	inactive: 0.02
CDR2L (UniProt Q86X02)	inactive: 0.072	inactive: 0.068	–	inactive: -0.044	inactive: 0.055	–	inactive: 0.008	inactive: -0.079	inactive: -0.173	inactive: -0.145	–	inactive: -0.345	inactive: 0.015	–	inactive: -0.257	inactive: 0.106	–	inactive: -0.005	–	–
CDS1 (UniProt Q92903)	inactive: 0.001	–	inactive: -0.129	inactive: 0.04	–	inactive: 0.045	–	–	–	–	inactive: -0.078	–	–	inactive: 0.061	inactive: -0.017	–	–	–	–	–
CENPQ (UniProt Q7L2Z9)	inactive: -0.137	–	inactive: 0.009	inactive: -0.124	–	–	–	–	inactive: 0.052	inactive: 0.057	–	–	–	inactive: -0.113	inactive: -0.02	–	inactive: 0.024	inactive: 0.024	–	–
CDK2AP1 (UniProt O14519)	inactive: 0.094	inactive: 0.084	inactive: 0.078	inactive: 0.014	inactive: -0.054	inactive: 0.16	inactive: -0.093	inactive: 0.042	–	–	inactive: -0.286	inactive: -0.461	inactive: 0.01	inactive: -0.009	inactive: 0.163	inactive: 0.073	inactive: 0.031	–	–	–
CENPE (UniProt Q02224)	inactive: 0.268	inactive: 0.525	–	inactive: -0.096	active: -0.875	inactive: 0.098	inactive: 0.072	inactive: 0.444	inactive: 0.011	inactive: 0.032	inactive: -0.184	inactive: 0.431	inactive: 0.119	–	inactive: 0.211	inactive: 0.11	–	inactive: 0.101	inactive: 0.046	inactive: -0.002
CHM (UniProt P24386)	inactive: 0.045	inactive: 0.052	inactive: -0.013	inactive: 0.023	inactive: -0.161	–	inactive: -0.074	inactive: -0.153	inactive: 0.006	inactive: 0.023	–	inactive: 0.001	inactive: 0.016	inactive: 0.053	inactive: 0.098	inactive: -0.128	–	inactive: 0.136	inactive: -0.045	inactive: -0.083
CENPS (UniProt Q8N2Z9)	inactive: -0.103	inactive: 0.023	inactive: 0.038	inactive: 0.138	inactive: -0.07	inactive: 0.04	–	inactive: 0.034	inactive: -0.025	inactive: 0.056	inactive: -0.034	inactive: -0.097	–	inactive: -0.001	inactive: 0.004	–	inactive: 0.189	inactive: 0.08	inactive: -0.143	inactive: -0.102
CEP41 (UniProt Q9BYV8)	inactive: -0.087	–	–	inactive: 0.127	–	–	–	–	–	–	–	–	–	–	inactive: -0.307	–	–	–	inactive: 0.016	inactive: 0.012
CEP152 (UniProt O94986)	inactive: 0.404	–	–	inactive: 0.061	–	inactive: -0.015	inactive: -0.166	–	inactive: 0.073	inactive: 0.01	inactive: 0.161	–	inactive: -0.216	–	inactive: 0.027	inactive: 0.074	inactive: 0.136	inactive: -0.186	inactive: 0.132	inactive: -0.031
CEP350 (UniProt Q5VT06)	–	inactive: 0.175	inactive: -0.153	–	inactive: 0.06	–	inactive: 0.28	inactive: 0.009	inactive: -0.095	inactive: -0.298	–	inactive: 0.071	inactive: -0.21	inactive: 0.057	–	inactive: -0.019	inactive: -0.099	inactive: -0.002	inactive: -0.163	inactive: 0.565
CDNF (UniProt Q49AH0)	–	–	–	–	–	–	–	–	–	–	–	–	–	–	–	–	–	–	inactive: 0.143	inactive: -0.083

Part of the list above, bar-delimited.
Target | log2 fold change [1] | log2 fold change [2] | log2 fold change [3] | log2 fold change [4] | log2 fold change [5] | log2 fold change [6] | log2 fold change [7] | log2 fold change [8] | log2 fold change [9] | log2 fold change [10] | log2 fold change [11] | log2 fold change [12] | log2 fold change [13] | log2 fold change [14] | log2 fold change [15] | log2 fold change [16] | log2 fold change [17] | log2 fold change [18] | log2 fold change [19] | log2 fold change [20]
CHD5 (UniProt Q8TDI0) | inactive: 0.124 | inactive: 0.161 | inactive: 0.123 | inactive: -0.144 | inactive: 0.062 | inactive: -0.049 | inactive: -0.024 | inactive: -0.108 | inactive: -0.112 | inactive: -0.061 | inactive: -0.058 | inactive: -0.249 | inactive: 0.11 | inactive: 0.021 | inactive: -0.367 | inactive: 0.09 | inactive: -0.016 | inactive: -0.022 | – | –
CENPS (UniProt Q8N2Z9) | inactive: -0.103 | inactive: 0.023 | inactive: 0.038 | inactive: 0.138 | inactive: -0.07 | inactive: 0.04 | – | inactive: 0.034 | inactive: -0.025 | inactive: 0.056 | inactive: -0.034 | inactive: -0.097 | – | inactive: -0.001 | inactive: 0.004 | – | inactive: 0.189 | inactive: 0.08 | inactive: -0.143 | inactive: -0.102
